Laboratory results taken from publication doi:10.1101/2020.05.29.123034.
Where two headings read alike, the source gives them in different places. No constants are given. Whether binding was seen depends on the method and setting. Binding seen in cells or lysates may run through a third protein. These calls come from enrichment with a bait or labelling near it, and not all partners need be listed. For some of these results: Sequences can lack the tags named with a protein.

Amino acid sequences for entries named in this document (tags omitted). Residues count along the entry.
UniProt P31016, residues 403-724: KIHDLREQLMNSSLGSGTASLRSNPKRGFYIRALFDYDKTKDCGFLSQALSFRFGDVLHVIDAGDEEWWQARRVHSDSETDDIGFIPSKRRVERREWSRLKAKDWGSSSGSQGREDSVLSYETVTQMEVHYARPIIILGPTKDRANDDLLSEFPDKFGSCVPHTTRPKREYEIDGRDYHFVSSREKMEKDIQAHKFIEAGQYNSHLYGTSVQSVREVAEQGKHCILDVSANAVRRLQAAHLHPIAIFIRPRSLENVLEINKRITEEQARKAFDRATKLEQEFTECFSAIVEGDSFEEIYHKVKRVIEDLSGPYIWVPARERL
UniProt Q5XI81: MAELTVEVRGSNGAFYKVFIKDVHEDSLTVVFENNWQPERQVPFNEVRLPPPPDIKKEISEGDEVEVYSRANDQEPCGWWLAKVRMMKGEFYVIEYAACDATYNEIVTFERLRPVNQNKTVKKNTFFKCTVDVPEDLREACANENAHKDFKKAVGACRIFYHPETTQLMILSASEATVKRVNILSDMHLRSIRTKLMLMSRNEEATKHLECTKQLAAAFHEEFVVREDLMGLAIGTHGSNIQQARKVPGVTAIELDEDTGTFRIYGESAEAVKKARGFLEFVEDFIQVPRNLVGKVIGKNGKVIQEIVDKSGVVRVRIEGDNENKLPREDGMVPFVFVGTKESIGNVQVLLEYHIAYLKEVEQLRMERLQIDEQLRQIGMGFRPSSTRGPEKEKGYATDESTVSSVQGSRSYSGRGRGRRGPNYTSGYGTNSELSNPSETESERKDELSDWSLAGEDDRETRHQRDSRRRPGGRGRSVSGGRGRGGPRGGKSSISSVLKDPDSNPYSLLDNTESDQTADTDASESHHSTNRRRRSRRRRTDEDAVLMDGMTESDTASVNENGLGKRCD
UniProt P59215: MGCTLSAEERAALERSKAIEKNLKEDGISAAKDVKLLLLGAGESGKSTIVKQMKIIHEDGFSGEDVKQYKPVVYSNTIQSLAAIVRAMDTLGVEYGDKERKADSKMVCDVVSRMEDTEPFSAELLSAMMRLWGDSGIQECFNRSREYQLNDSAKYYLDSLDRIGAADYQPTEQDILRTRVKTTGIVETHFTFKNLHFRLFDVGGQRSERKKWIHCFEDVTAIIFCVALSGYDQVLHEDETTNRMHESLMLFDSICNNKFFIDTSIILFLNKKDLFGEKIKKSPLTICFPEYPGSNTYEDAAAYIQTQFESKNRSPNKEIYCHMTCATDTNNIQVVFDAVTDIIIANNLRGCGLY
UniProt P34926: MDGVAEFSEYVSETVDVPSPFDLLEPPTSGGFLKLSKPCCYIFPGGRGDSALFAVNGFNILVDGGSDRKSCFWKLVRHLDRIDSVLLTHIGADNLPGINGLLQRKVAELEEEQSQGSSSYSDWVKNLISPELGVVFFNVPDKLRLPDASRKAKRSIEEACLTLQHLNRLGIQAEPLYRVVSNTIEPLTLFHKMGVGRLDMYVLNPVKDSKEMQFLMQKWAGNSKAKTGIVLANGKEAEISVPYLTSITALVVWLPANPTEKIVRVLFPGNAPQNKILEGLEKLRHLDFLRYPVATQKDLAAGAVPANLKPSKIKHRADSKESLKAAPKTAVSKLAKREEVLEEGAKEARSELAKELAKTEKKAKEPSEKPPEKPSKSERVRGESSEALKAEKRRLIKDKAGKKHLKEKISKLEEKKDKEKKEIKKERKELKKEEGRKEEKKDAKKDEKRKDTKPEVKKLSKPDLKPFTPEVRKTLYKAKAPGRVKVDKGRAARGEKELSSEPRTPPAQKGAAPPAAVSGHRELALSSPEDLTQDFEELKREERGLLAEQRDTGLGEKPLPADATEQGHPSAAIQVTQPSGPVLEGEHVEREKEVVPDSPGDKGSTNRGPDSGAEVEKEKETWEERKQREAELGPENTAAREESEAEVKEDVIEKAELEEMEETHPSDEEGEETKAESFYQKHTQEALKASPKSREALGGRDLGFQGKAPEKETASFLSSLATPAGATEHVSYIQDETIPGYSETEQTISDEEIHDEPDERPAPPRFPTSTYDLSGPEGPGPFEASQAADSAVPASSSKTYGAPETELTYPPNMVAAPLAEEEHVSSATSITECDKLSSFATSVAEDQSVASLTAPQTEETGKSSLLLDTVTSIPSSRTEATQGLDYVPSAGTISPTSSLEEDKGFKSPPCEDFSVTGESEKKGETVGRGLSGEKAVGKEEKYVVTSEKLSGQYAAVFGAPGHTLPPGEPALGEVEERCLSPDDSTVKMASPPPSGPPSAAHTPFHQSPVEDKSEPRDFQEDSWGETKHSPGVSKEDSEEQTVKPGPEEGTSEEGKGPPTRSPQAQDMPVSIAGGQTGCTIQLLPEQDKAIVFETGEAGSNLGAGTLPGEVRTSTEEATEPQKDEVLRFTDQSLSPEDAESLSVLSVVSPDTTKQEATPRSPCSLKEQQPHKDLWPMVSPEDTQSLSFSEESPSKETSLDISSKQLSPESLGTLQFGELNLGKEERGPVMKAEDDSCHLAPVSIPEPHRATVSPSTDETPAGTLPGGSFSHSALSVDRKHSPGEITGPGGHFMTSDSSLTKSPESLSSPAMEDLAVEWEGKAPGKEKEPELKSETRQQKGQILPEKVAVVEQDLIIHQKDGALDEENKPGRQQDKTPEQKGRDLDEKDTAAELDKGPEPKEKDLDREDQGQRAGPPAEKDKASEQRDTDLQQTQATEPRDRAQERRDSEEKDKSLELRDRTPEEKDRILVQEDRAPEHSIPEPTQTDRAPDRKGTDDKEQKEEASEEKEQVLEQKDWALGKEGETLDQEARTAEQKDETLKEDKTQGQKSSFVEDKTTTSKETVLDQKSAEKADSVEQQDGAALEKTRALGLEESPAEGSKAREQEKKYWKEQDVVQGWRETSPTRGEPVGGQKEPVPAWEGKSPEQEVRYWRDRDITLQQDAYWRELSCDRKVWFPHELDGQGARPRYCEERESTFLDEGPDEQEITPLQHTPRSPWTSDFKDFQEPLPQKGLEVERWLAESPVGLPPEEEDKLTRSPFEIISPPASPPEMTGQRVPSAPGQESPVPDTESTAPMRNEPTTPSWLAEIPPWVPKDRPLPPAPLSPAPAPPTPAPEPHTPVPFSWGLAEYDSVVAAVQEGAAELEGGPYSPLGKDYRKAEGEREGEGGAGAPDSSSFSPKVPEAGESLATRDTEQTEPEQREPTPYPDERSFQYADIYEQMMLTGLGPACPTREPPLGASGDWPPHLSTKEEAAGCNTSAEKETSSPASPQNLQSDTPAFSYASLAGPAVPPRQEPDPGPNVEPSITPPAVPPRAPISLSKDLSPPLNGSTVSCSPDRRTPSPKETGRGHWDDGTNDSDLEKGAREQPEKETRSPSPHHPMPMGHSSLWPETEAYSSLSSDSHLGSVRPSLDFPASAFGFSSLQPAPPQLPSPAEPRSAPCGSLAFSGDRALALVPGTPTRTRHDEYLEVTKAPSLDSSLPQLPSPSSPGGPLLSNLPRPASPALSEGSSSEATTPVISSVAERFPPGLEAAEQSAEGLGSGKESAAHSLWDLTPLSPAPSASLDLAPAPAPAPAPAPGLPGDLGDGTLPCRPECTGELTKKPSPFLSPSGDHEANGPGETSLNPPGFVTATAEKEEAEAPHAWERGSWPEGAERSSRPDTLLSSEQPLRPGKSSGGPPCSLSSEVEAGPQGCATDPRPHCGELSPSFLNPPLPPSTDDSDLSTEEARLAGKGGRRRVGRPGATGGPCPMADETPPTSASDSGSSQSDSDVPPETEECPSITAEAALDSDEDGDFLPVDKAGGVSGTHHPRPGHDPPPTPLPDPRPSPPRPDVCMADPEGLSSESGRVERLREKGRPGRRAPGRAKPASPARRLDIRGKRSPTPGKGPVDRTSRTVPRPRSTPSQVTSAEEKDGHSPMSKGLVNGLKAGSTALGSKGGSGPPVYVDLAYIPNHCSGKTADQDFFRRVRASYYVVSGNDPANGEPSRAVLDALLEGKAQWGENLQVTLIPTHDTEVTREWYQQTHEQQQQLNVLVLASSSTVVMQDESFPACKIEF
UniProt Q5I6B8: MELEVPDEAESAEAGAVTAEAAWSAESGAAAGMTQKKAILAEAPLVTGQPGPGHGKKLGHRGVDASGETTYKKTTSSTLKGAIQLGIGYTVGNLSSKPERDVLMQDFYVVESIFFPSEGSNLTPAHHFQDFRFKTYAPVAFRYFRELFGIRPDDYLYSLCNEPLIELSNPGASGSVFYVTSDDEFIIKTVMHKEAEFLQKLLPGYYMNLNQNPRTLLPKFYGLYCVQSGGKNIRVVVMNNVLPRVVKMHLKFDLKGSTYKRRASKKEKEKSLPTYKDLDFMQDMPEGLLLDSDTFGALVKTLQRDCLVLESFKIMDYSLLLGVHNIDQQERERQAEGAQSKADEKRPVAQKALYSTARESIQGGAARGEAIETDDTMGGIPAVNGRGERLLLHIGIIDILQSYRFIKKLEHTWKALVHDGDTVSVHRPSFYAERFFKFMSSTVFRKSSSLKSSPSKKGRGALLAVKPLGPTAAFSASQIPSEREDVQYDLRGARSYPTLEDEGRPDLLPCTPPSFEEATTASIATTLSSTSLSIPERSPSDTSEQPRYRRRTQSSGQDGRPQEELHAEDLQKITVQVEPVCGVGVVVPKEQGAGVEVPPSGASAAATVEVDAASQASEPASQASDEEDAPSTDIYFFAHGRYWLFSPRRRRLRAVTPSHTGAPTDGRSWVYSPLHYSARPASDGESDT

Legend:
Test in all cases: affinity purification with mass spectrometry
GST-PSD-95-SH3GK = GST-PSD-95-SH3GK (UniProt P31016)
GST-MPP2-SH3GK (mouse) [1] = target: T1, GST-MPP2-SH3GK (mouse) (UniProt Q9WV34)
T1 sequence: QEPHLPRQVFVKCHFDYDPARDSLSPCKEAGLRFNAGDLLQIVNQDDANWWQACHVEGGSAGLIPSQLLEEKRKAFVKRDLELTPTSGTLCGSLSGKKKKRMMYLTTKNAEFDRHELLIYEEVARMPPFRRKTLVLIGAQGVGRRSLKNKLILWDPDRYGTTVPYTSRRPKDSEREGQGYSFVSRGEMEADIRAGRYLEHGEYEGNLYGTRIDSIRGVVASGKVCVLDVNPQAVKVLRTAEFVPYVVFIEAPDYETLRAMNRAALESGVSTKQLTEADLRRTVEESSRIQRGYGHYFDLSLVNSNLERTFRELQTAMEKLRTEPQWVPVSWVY

GST-MPP2-SH3GK (mouse) [2] = target: T1, GST-MPP2-SH3GK (mouse); remark: listed apart in the source

“endogenous Fxr1 from rat brain crude synaptosomes (from UniProt Q5XI81 1-568)” was tested, and the binding (GST-PSD-95-SH3GK) was “binds”.

In the case of “endogenous Gnao1 from rat brain crude synaptosomes (from UniProt P59215 1-354)”, the binding (GST-MPP2-SH3GK (mouse) [1]) is reported as “binds”.

In the case of “endogenous Map1a from rat brain crude synaptosomes (from UniProt P34926 1-2774)”, the binding (GST-PSD-95-SH3GK) is reported as “binds”.

In the case of “endogenous Pip5k1c from rat brain crude synaptosomes (from UniProt Q5I6B8 1-688)”, the binding (GST-MPP2-SH3GK (mouse) [1]) is reported as “binds”.

For “endogenous calcium-dependent, calmodulin-stimulated protein phosphatase (Calcineurin) subunit Ppp3ca from rat brain crude synaptosomes (from UniProt P63329 1-521)”, the binding (GST-MPP2-SH3GK (mouse) [1]) was “binds”.

B1: endogenous Farp1 from rat brain crude synaptosomes (protein, UniProt F1LYQ8 1-1049)
chain: MGEIEQKPTPASRLGAPENSGISTLERGQKPPPTPSGKLMTVKIQMLDDTQEAFEVPQRAPGKVLFDAVCNHLNLVEGDYFGLEFPDHRKIVVWLDLLKPIVKQIRRPKHVLVKFVVKFFPPDHTQLQEELTRYLFALQVKQDLAQGRLTCNDTSAALLISHIVQSEIGDFDEALDREHLAKNKYVPQQDALEDKIVEFHHSHIGQTPAESDFQLLEVARRLEMYGIRLHPAKDREGTKINLAVANTGILVFQGFTKINAFNWAKVRKLSFKRKRFLIKLRPDVNSSYQDTLEFLMAGRDFCKSFWKICVEHHAFFRLFEEPKPKPKPVLFSRGSSFRFSGRTQKQVLDYVKEGGHKKVQFERKHSKIHSTRSLVSQPTAPNSEVPKQSPQSASLTFGEGTESPSAQSCQQAKETKVCTLEPGPRQSPALSKSPSGSKAADGTAAAAPPEEEDEEEGGKDGIRPSNPQPPQPSTGSLTGSPHLSELSINSQGGAAPANVTLSPNLSPDNKQASPLISPLLNDQACPRTDDEEEGRRKRFPTDKAYYIAKEVSTTERTYLKDLEVIASWFQSTVSKEDSMPEALKSLIFPNFEPLHKFHTNFLKEIEQRLALWEGRSNAHIRGDYQRIGDVMLKNIQGMKHLAAHLWKHSEALEALETSIKGSRRLEHFCRDFELQKVCYLPLNTFLLRPLHRLMHYKQVLERLCKHHPPNHADFRDCRAALAEITEMVAQLHGTMIKMENFQKLHELKKDLIGIDNLVIPGREFIRLGSLSKLSGKGLQQRMFFLFNDVLLYTSRGLTASNQFKVHGQLPLYGMTIEESEEEWGVPHCLTLRGQRQSIIVAASSRSEMEKWLEDIQMAIDLAEKSNGPTPELLASSPPDNKSPDEATAADQESEDDLSASRTSLERQAPHRGNTMVHVCWHRSTSVSMVDFSIAVENQLSGNLLRKFKNSNGWQKLWVVFTNFCLFFYKSHQDSHPLASLPLLGYSLTIPSESENIHKDYVFKLHFKSHVYYFRAESEYTFERWMEVIRSATSSASRAHSLSHKESHLY
In the case of B1, the binding (GST-MPP2-SH3GK (mouse) [2]) is reported as “binds”.

B2: endogenous Arhgef2 from rat brain crude synaptosomes (protein, UniProt Q5FVC2 1-985)
chain: MSRIESLTRARIDRSKEQATKTREKEKMKEAKDARYTNGHLFTTISVSGMTMCYACNKSITAKEALICPTCNVTIHNRCKDTLANCTKVKQKQQKAALLRNNTALQSVSLRSKTTTRERPTSAIYPSDSFRQSLLGSRRGLSSLSLAKSVSTTNIAGHFNDESPLGLRQILSQSTDSLNMRNRTLSVESLIDEGVEVFYNELMSDFEMDEKDFEADSWSLAVDSSFLQQHKKEVMKKQDVIYELIQTELHHVRTLKIMTRLFRTGMLEELQMEPEVVQGLFPCVDELSDIHTRFLSQLLERRRQALCPGSTRNFVIHRLGDLLISQFSGSNAEQMRKTYSEFCSRHTKALKLYKELYARDKRFQQFIRKMTRSAVLKRHGVQECILLVTQRITKYPVLINRILQNSHGIEEEYQDLAAALGLVKELLSNVDQDVHELEKEARLQEIYNRMDPRAQTPVPGKGPFGRDELLRRKLIHDGCLLWKTATGRFKDVLLLLMTDVLVFLQEKDQKYIFTSLDKPSVVSLQNLIVRDIANQAKGMFLISSGPPEMYEVHAASRDDRTTWIRVIQQSVRLCPSREDFPLIETEDKAYLRRIKTKLQQKNQALVELLQMNVELFAEMVHFQALKAGFIGMPPPTLPRGLFRLESFESLRGERLLKDALREVEGLKDLLLGPCVDLPLTAREPALPVEADSGSCPGVTANGEARTFNGSIELCRADSDSSQKDRNGNQLRSPQEEALQPLVNLYGLLQGLQAVVVQQERLMEALFPEGPERWEKLSRANSRDGEAGRAAVASVTPEKQATELALLQRQHSLLQEELRRCQRLGEERATEAGSLEARLRESEQARALLEREAEEIRRQLAALGQNEPLPAEAPWARRPLDPRRRSLPAGDALYLSFNPPQPSRGHDRLDLPVTVRSLHRPFDDREAQELGSPEDRLQDSSDPDTCSEEEVSSRLSPPHSPRDFTRMQDIPEETESRDGEPTASES
In the case of B2, the binding (GST-MPP2-SH3GK (mouse) [2]) is reported as “binds”.
